Test results published in patent publication US20170189504A1, “NOVEL PEPTIDES AND COMBINATION OF PEPTIDES FOR USE IN IMMUNOTHERAPY AGAINST VARIOUS CANCERS” (immatics biotechnologies GmbH, priority 2015, published 2017).
For part of these data: Expression values are those of the mRNA of the gene that encodes the peptide; a gene is named only where it was looked up.

How the values were obtained:
[1] = tested on: HLA-A*24; test: Identification and relative LC-MS quantitation of HLA-A*24-presented tumor-associated peptides on tissue samples (presentation profiles, Tables 14A, 14B, 16, FIG. 1); design: species or system human; key to Presentation score GC / Presentation score NSCLC / Presentation score PCA / Presentation score GB / Presentation score HCC / Presentation score RCC: specifically presented on tumors (++++); very highly over-presented on tumors compared to a panel of normal tissues (+++); highly over-presented on tumors compared to a panel of normal tissues (++); over-presented on tumors compared to a panel of normal tissues (+); details: for Presentation score GB: glioblastoma (N = 18) vs panel of normal tissues (N = 70); for Presentation score NSCLC: non-small cell lung cancer (N = 91) vs panel of normal tissues (N = 70); for Peptide Presentation on cancer entities: Table 14A, HLA-A*24-binding tumor-associated peptides, cancer entities on which the peptide was found presented
[2] = tested on: source genes (mRNA); test: Gene and exon expression of source genes, TCGA tumor samples compared with normal tissue samples (Lonsdale, 2013) (Table 17); design: species or system human; details: for Over-expression category of source gene (target coverage), BLCA: BLCA = Bladder urothelial carcinoma (N = 408); for Over-expression category of source gene (target coverage), BLCA / Over-expression category of source gene (target coverage), CHOL / Over-expression category of source gene (target coverage), COAD / Over-expression category of source gene (target coverage), DLBC / Over-expression category of source gene (target coverage), ESCA / Over-expression category of source gene (target coverage), GBM / Over-expression category of source gene (target coverage), KICH / Over-expression category of source gene (target coverage), KIRC / Over-expression category of source gene (target coverage), KIRP / Over-expression category of source gene (target coverage), LAML / Over-expression category of source gene (target coverage), LGG / Over-expression category of source gene (target coverage), LIHC / Over-expression category of source gene (target coverage), LUAD / Over-expression category of source gene (target coverage), LUSC / Over-expression category of source gene (target coverage), OV / Over-expression category of source gene (target coverage), PAAD / Over-expression category of source gene (target coverage), PRAD / Over-expression category of source gene (target coverage), READ / Over-expression category of source gene (target coverage), SKCM / Over-expression category of source gene (target coverage), STAD / Over-expression category of source gene (target coverage), UCEC: same cutoff; for Over-expression category of source gene (target coverage), BRCA: BRCA = Breast cancer (N = 1104), tumors more than 2-fold above highest 75% percentile of normal tissues; for Over-expression category of source gene (target coverage), CHOL: CHOL = Cholangiocarcinoma (N = 36); for Over-expression category of source gene (target coverage), COAD: COAD = Colon and rectal adenocarcinoma (N = 462); for Over-expression category of source gene (target coverage), DLBC: DLBC = Lymphoid neoplasm diffuse large B-cell lymphoma (N = 48); for Over-expression category of source gene (target coverage), ESCA: ESCA = Esophageal cancer (N = 185); for Over-expression category of source gene (target coverage), GBM: GBM = Glioblastoma multiforme (N = 169); for Over-expression category of source gene (target coverage), KICH: KICH = Kidney chromophobe (N = 66); for Over-expression category of source gene (target coverage), KIRC: KIRC = Clear cell kidney carcinoma (N = 534); for Over-expression category of source gene (target coverage), KIRP: KIRP = Papillary kidney carcinoma (N = 291); for Over-expression category of source gene (target coverage), LAML: LAML = Acute Myeloid Leukemia (N = 173); for Over-expression category of source gene (target coverage), LGG: LGG = Lower grade glioma (N = 534); for Over-expression category of source gene (target coverage), LIHC: LIHC = Liver hepatocellular carcinoma (N = 374); for Over-expression category of source gene (target coverage), LUAD: LUAD = Lung adenocarcinoma (N = 517); for Over-expression category of source gene (target coverage), LUSC: LUSC = Lung squamous cell carcinoma (N = 503); for Over-expression category of source gene (target coverage), OV: OV = Ovarian serous cystadenocarcinoma (N = 309); for Over-expression category of source gene (target coverage), PAAD: PAAD = Pancreatic ductal adenocarcinoma (N = 179); for Over-expression category of source gene (target coverage), PRAD: PRAD = Prostate adenocarcinoma (N = 498); for Over-expression category of source gene (target coverage), READ: READ = Colon and rectal adenocarcinoma (N = 167); for Over-expression category of source gene (target coverage), SKCM: SKCM = Skin cutaneous melanoma (N = 473); for Over-expression category of source gene (target coverage), STAD: STAD = Stomach adenocarcinoma (N = 415); for Over-expression category of source gene (target coverage), UCEC: UCEC = Uterine corpus endometrial carcinoma (N = 546)
[3] = tested on: source genes (mRNA); test: Expression profiling of source genes by in-house RNASeq of tumor and normal tissues (Table 18, FIG. 2); design: species or system human; key: very highly over-expressed in tumors compared to a panel of normal tissues (+++); highly over-expressed in tumors compared to a panel of normal tissues (++); over-expressed in tumors compared to a panel of normal tissues (+); details: source gene of peptide; for Expression score OSCAR: esophageal cancer incl. gastric-esophageal junction (N = 11) vs panel of normal tissues; for Expression score GB: glioblastoma (N = 24) vs panel of normal tissues; for Expression score NSCLC: non-small cell lung cancer (N = 11) vs panel of normal tissues; for Expression score OC: ovarian cancer (N = 12) vs panel of normal tissues; for Expression score UBC: urinary bladder cancer (N = 10) vs panel of normal tissues

Substance	Presentation score GB ([1]; HLA-A*24 peptides)	Presentation score NSCLC ([1]; HLA-A*24 peptides)	Peptide Presentation on cancer entities [1]	Over-expression category of source gene (target coverage), BLCA [2]	Over-expression category of source gene (target coverage), BRCA [2]	Over-expression category of source gene (target coverage), CHOL [2]	Over-expression category of source gene (target coverage), COAD [2]	Over-expression category of source gene (target coverage), DLBC [2]	Over-expression category of source gene (target coverage), ESCA [2]	Over-expression category of source gene (target coverage), GBM [2]	Over-expression category of source gene (target coverage), KICH [2]	Over-expression category of source gene (target coverage), KIRC [2]	Over-expression category of source gene (target coverage), KIRP [2]	Over-expression category of source gene (target coverage), LAML [2]	Over-expression category of source gene (target coverage), LGG [2]	Over-expression category of source gene (target coverage), LIHC [2]	Over-expression category of source gene (target coverage), READ [2]	Over-expression category of source gene (target coverage), STAD [2]	Expression score OSCAR [3]	Expression score OC [3]	other results
166: peptide found in NUP160 (gene looked up) (YYVESGKLF; listed as Homo sapiens) [compound 166]	++++	++++	GB, NSCLC, HCC	B (>= 20% of tumors above the cutoff, but <50%)	B (>= 20% of tumors above the cutoff, but <50%)	B (>= 20% of tumors above the cutoff, but <50%)	A (>=50% of tumors above the cutoff)	B (>= 20% of tumors above the cutoff, but <50%)	A (>=50% of tumors above the cutoff)	B (>= 20% of tumors above the cutoff, but <50%)	B (>= 20% of tumors above the cutoff, but <50%)	B (>= 20% of tumors above the cutoff, but <50%)	B (>= 20% of tumors above the cutoff, but <50%)	A (>=50% of tumors above the cutoff)	B (>= 20% of tumors above the cutoff, but <50%)	C (>=5% of tumors above the cutoff, but <20%)	A (>=50% of tumors above the cutoff)	A (>=50% of tumors above the cutoff)	+	+	Presentation score HCC ([1]; HLA-A*24 peptides, hepatocellular carcinoma (N = 15) vs panel of normal tissues (N = 70)): ++++; Over-expression category of source gene (target coverage), LUAD [2]: B (>= 20% of tumors above the cutoff, but <50%); Over-expression category of source gene (target coverage), LUSC [2]: A (>=50% of tumors above the cutoff); Over-expression category of source gene (target coverage), OV [2]: B (>= 20% of tumors above the cutoff, but <50%); Over-expression category of source gene (target coverage), PAAD [2]: B (>= 20% of tumors above the cutoff, but <50%); Over-expression category of source gene (target coverage), PRAD [2]: B (>= 20% of tumors above the cutoff, but <50%); Over-expression category of source gene (target coverage), SKCM [2]: A (>=50% of tumors above the cutoff); Over-expression category of source gene (target coverage), UCEC [2]: C (>=5% of tumors above the cutoff, but <20%); Expression score GB [3]: +; Expression score NHL ([3]; non-Hodgkin lymphoma (N = 10) vs panel of normal tissues): +; Expression score NSCLC [3]: +; Expression score SCLC ([3]; small cell lung cancer (N = 10) vs panel of normal tissues): +
170: peptide found in EMC1 (gene looked up) (VYEDQVGKF; listed as Homo sapiens) [compound 170]	++++	++++	GB, NSCLC	A (>=50% of tumors above the cutoff)	A (>=50% of tumors above the cutoff)	B (>= 20% of tumors above the cutoff, but <50%)	A (>=50% of tumors above the cutoff)	B (>= 20% of tumors above the cutoff, but <50%)	A (>=50% of tumors above the cutoff)	A (>=50% of tumors above the cutoff)	C (>=5% of tumors above the cutoff, but <20%)	A (>=50% of tumors above the cutoff)	B (>= 20% of tumors above the cutoff, but <50%)	A (>=50% of tumors above the cutoff)	A (>=50% of tumors above the cutoff)	B (>= 20% of tumors above the cutoff, but <50%)	A (>=50% of tumors above the cutoff)	A (>=50% of tumors above the cutoff)	+	+	Over-expression category of source gene (target coverage), LUAD [2]: A (>=50% of tumors above the cutoff); Over-expression category of source gene (target coverage), LUSC [2]: A (>=50% of tumors above the cutoff); Over-expression category of source gene (target coverage), OV [2]: A (>=50% of tumors above the cutoff); Over-expression category of source gene (target coverage), PAAD [2]: A (>=50% of tumors above the cutoff); Over-expression category of source gene (target coverage), PRAD [2]: A (>=50% of tumors above the cutoff); Over-expression category of source gene (target coverage), SKCM [2]: A (>=50% of tumors above the cutoff); Over-expression category of source gene (target coverage), UCEC [2]: A (>=50% of tumors above the cutoff); Expression score GB [3]: +; Expression score NSCLC [3]: +; Expression score UBC [3]: +
177: peptide found in CYP2W1 (gene looked up) (VYPWLGALL; listed as Homo sapiens) [compound 177]							B (>= 20% of tumors above the cutoff, but <50%)		C (>=5% of tumors above the cutoff, but <20%)								B (>= 20% of tumors above the cutoff, but <50%)	C (>=5% of tumors above the cutoff, but <20%)	++	+++	Presentation score GC ([1]; HLA-A*24 peptides, gastric cancer (N = 44) vs panel of normal tissues (N = 70)): ++++; Expression score CRC ([3]; colorectal cancer (N = 20) vs panel of normal tissues): +++; Expression score GBC_CCC ([3]; gallbladder adenocarcinoma and cholangiocarcinoma (N = 3) vs panel of normal tissues): +++; Expression score GC ([3]; gastric cancer (N = 11) vs panel of normal tissues): +++; Expression score PC ([3]; pancreatic cancer (N = 26) vs panel of normal tissues): +; Expression score PCA ([3]; prostate cancer and benign prostate hyperplasia (N = 5) vs panel of normal tissues): +; Expression score UBC [3]: +
